Changes are numbered by the printed parent chain. Results are given in words; binding and its absence hold for the method and conditions named. Binding seen in cells or lysates may run through a third protein. Here binding means that the protein was enriched with, or labelled near, the bait; the list need not be complete.
B1: GLUTAMINE … (protein, UniProt Q43127 46-430)
chain: GFRVLALQSDNSTVNRVETLLNLDTKPYSDRIIAEYIWIGGSGIDLRSKSRTIEKPVEDPSELPKWNYDGSSTGQAPGEDSEVILYPQAIFRDPFRGGNNILVICDTWTPAGEPIPTNKRAKAAEIFSNKKVSGEVPWFGIEQEYTLLQQNVKWPLGWPVGAFPGPQGPYYCGVGADKIWGRDISDAHYKACLYAGINISGTNGEVMPGQWEFQVGPSVGIDAGDHVWCARYLLERITEQAGVVLTLDPKPIEGDWNGAGCHTNYSTKSMREEGGFEVIKKAILNLSLRHKEHISAYGEGNERRLTGKHETASIDQFSWGVANRGCSIRVGRDTEAKGKGYLEDRRPASNMDPYIVTSLLAETTLLWEPTLEAEALAAQKLSLNV
B2: CHLOROPLAST PROTEIN 12-1 (leaf protein) (protein, UniProt O22914 48-124)
chain: TSEGEISEKVEKSIQEAKETCADDPVSGECVAAWDEVEELSAAASHARDKKKAGGSDPLEEYCNDNPETDECRTYDN
B3: 50S ribosomal protein L5 (protein, UniProt O04603 40-262)
chain: VSASGTVLVEKSEAEKTQRLKTAYLERIIPALKEEFKYVNIHQVPKVQKIVVNCGIGDAAQNDKGLEAAMKDIALITGQKPIKTRARASIATFKIREDQPLGIAVTLRGDVMYSFLDRLINLALPRTRDFQGVSPSSFDGNGNYSIGVKDQGVFPEIRFDAVGKTRGMDVCISTTAKSDQEGQKLLALMGMPFREGGGGSTGAIVRKKKLKSHHFDAKGKGKR
B4: Monodehydroascorbate reductase 6 (protein, UniProt P92947 52-493)
chain: VTASFANENREFVIVGGGNAAGYAARTFVENGMADGRLCIVTKEAYAPYERPALTKAYLFPPEKKPARLPGFHTCVGGGGERQTPDWYKEKGIEVIYEDPVAGADFEKQTLTTDAGKQLKYGSLIIATGCTASRFPDKIGGHLPGVHYIREVADADSLIASLGKAKKIVIVGGGYIGMEVAAAAVAWNLDTTIVFPEDQLLQRLFTPSLAQKYEELYRQNGVKFVKGASINNLEAGSDGRVSAVKLADGSTIEADTVVIGIGAKPAIGPFETLAMNKSIGGIQVDGLFRTSTPGIFAIGDVAAFPLKIYDRMTRVEHVDHARRSAQHCVKSLLTAHTDTYDYLPYFYSRVFEYEGSPRKVWWQFFGDNVGETVEVGNFDPKIATFWIESGRLKGVLVESGSPEEFQLLPKLARSQPLVDKAKLASASSVEEALEIAQAALQS
B5: NADP-dependent malic enzyme 2 (protein, UniProt Q9LYG3 1-588)
chain: MGSTPTDLPGEDVADNRSGVGGGISDVYGEDSATLDQLVTPWVTSVASGYTLMRDPRYNKGLAFTDKERDAHYLTGLLPPVILSQDVQERKVMHNLRQYTVPLQRYMALMDLQERNERLFYKLLIDNVEELLPVVYTPTVGEACQKYGSIFRKPQGLYISLNEKGKILEVLKNWPQRGIQVIVVTDGERILGLGDLGCQGMGIPVGKLSLYTALGGIRPSACLPITIDVGTNNEKLLNDEFYIGLKQRRATGQEYAEFLHEFMCAVKQNYGEKVLVQFEDFANHNAFDLLSKYSDSHLVFNDDIQGTASVVLAGLIAAQKVLGKKLADHTFLFLGAGEAGTGIAELIALKISKETGAPITETRKKIWLVDSKGLIVSSRKESLQHFKQPWAHEHKPVKDLIGAVNAIKPTVLIGTSGVGQTFTKEVVEAMATNNEKPLILALSNPTSQAECTAEQAYTWTKGRAIFGSGSPFDPVVYDGKTYLPGQANNCYIFPGLGLGLIMSGAIRVRDDMLLAASEALAAQVTEEHYANGLIYPPFSNIREISANIAACVAAKTYDLGLASNLPRAKDLVKFAESSMYSPVYRNYR
B6: 30S ribosomal protein S10 (protein, UniProt Q9LK61 57-191)
chain: AVPDTLDPTPEILDEPASEVPSSSSISVDADKMAPKQKIRIKLRSYWVPLIEDSCKQILDAARNTNAKTMGPVPLPTKKRIYCVLKSPHVHKDARFHFEIRTHQRMIDILYPTAQTIDSLMQLDLPAGVDVEVKL
B7: Beta-amylase 3 (protein, UniProt O23553 50-548)
chain: EMKFTHEKTFTPEGETLEKWEKLHVLSYPHSKNDASVPVFVMLPLDTVTMSGHLNKPRAMNASLMALKGAGVEGVMVDAWWGLVEKDGPMNYNWEGYAELIQMVQKHGLKLQVVMSFHQCGGNVGDSCSIPLPPWVLEEISKNPDLVYTDKSGRRNPEYISLGCDSVPVLRGRTPIQVYSDFMRSFRERFEGYIGGVIAEIQVGMGPCGELRYPSYPESNGTWRFPGIGEFQCYDKYMKSSLQAYAESIGKTNWGTSGPHDAGEYKNLPEDTEFFRRDGTWNSEYGKFFMEWYSGKLLEHGDQLLSSAKGIFQGSGAKLSGKVAGIHWHYNTRSHAAELTAGYYNTRNHDGYLPIAKMFNKHGVVLNFTCMEMKDGEQPEHANCSPEGLVKQVQNATRQAGTELAGENALERYDSSAFGQVVATNRSDSGNGLTAFTYLRMNKRLFEGQNWQQLVEFVKNMKEGGHGRRLSKEDTTGSDLYVGFVKGKIAENVEEAALV
B8: Isoamylase 3 (protein, UniProt Q9M0S5 71-764)
chain: EEEASTMTETKLFKVSSGEVSPLGVSQVDKGINFALFSQNATSVTLCLSLSQSGKDDTDDDGMIELVLDPSVNKTGDTWHICVEDLPLNNVLYGYRVDGPGEWQQGHRFDRSILLLDPYAKLVKGHSSFGDSSQKFAQFYGTYDFESSPFDWGDDYKFPNIPEKDLVIYEMNVRAFTADESSGMDPAIGGSYLGFIEKIPHLQDLGINAVELLPVFEFDELELQRRSNPRDHMVNTWGYSTVNFFAPMSRYASGEGDPIKASKEFKEMVKALHSAGIEVILDVVYNHTNEADDKYPYTTSFRGIDNKVYYMLDPNNQLLNFSGCGNTLNCNHPVVMELILDSLRHWVTEYHVDGFRFDLASVLCRATDGSPLSAPPLIRAIAKDSVLSRCKIIAEPWDCGGLYLVGKFPNWDRWAEWNGMYRDDVRRFIKGDSGMKGSFATRVSGSSDLYQVNQRKPYHGVNFVIAHDGFTLRDLVSYNFKHNEANGEGGNDGCNDNHSWNCGFEGETGDAHIKSLRTRQMKNFHLALMISQGTPMMLMGDEYGHTRYGNNNSYGHDTSLNNFQWKELDAKKQNHFRFFSEVIKFRHSHHVLKHENFLTQGEITWHEDNWDNSESKFLAFTLHDGIGGRDIYVAFNAHDYFVKALIPQPPPGKQWFRVADTNLESPDDFVREGVAGVADTYNVAPFSSILLQSK
B9: HTPA synthase 2 (protein, UniProt Q9FVC8 40-365)
chain: AVVPNFHLPMRSLEVKNRTNTDDIKALRVITAIKTPYLPDGRFDLEAYDDLVNIQIQNGAEGVIVGGTTGEGQLMSWDEHIMLIGHTVNCFGGSIKVIGNTGSNSTREAIHATEQGFAVGMHAALHINPYYGKTSIEGLIAHFQSVLHMGPTIIYNVPGRTGQDIPPRAIFKLSQNPNLAGVKECVGNKRVEEYTENGVVVWSGNDDECHDSRWDYGATGVISVTSNLVPGLMRKLMFEGRNSSLNSKLLPLMAWLFHEPNPIGINTALAQLGVSRPVFRLPYVPLPLSKRLEFVKLVKEIGREHFVGEKDVQALDDDDFILIGRY
B10: NADPH-dependent thioredoxin reductase C (protein, UniProt O22229 68-529)
chain: ATANSPSSSSSGGEIIENVVIIGSGPAGYTAAIYAARANLKPVVFEGYQMGGVPGGQLMTTTEVENFPGFPDGITGPDLMEKMRKQAERWGAELYPEDVESLSVTTAPFTVQTSERKVKCHSIIYATGATARRLRLPREEEFWSRGISACAICDGASPLFKGQVLAVVGGGDTATEEALYLTKYARHVHLLVRRDQLRASKAMQDRVINNPNITVHYNTETVDVLSNTKGQMSGILLRRLDTGEETELEAKGLFYGIGHSPNSQLLEGQVELDSSGYVLVREGTSNTSVEGVFAAGDVQDHEWRQAVTAAGSGCIAALSAERYLTSNNLLVEFHQPQTEEAKKEFTQRDVQEKFDITLTKHKGQYALRKLYHESPRVILVLYTSPTCGPCRTLKPILNKVVDEYNHDVHFVEIDIEEDQEIAEAAGIMGTPCVQFFKNKEMLRTISGVKMKKEYREFIEANK

molecular target: T1, 2-CysPRXA C54S (pseudo-reduced variant) (Arabidopsis) (UniProt Q96291); test: affinity purification with mass spectrometry; reducing: his6-tagged 2-CysPRXA variant (3 mg) on Ni-NTA-agarose pretreated with 10 mM DTT; leaf extract (50 mg protein) made with 10 mM DTT; 50 mM HEPES pH 8.0, 1 h, 4 °C; stepwise elution with 1 M NaCl, 10 mM DTT, 250 mM imidazole; hits not found on the column without 2-CysPRX; only the target purified
T1 sequence: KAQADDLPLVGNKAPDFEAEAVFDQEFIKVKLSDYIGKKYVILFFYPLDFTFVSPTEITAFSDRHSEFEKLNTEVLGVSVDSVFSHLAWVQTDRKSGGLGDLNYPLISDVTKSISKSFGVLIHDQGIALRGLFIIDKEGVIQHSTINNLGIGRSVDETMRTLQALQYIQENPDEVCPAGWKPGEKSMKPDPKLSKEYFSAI

Binder	binding
B1	binds

molecular target: T2, 2-CysPRXA C54D (pseudo-hyperoxidized variant) (Arabidopsis) (UniProt Q96291); test: affinity purification with mass spectrometry; oxidizing: his6-tagged 2-CysPRXA variant (3 mg) on Ni-NTA-agarose pretreated with 1 mM H2O2; leaf extract (50 mg protein) made with 1 mM H2O2; 50 mM HEPES pH 8.0, 1 h, 4 °C; stepwise elution with 1 M NaCl, 10 mM DTT, 250 mM imidazole; hits not found on the column without 2-CysPRX; only the target purified
T2 sequence: T1 sequence with S54D

Binder	binding
B2	binds

molecular target: T1, 2-CysPRXA C54S (pseudo-reduced variant) (Arabidopsis); test: as above

Binder	binding
B2	binds
B1	binds
B3	binds
B4	binds
B5	binds
B6	binds
B7	binds
B8	binds

molecular target: T3, 2-cysteine peroxiredoxin A, wild type (2-CysPRXA WT) (Arabidopsis) (UniProt Q96291); test: as above
T3 sequence: T1 sequence with S54C

Binder	binding
B9	binds
B10	binds

— article PMC7346168
